Earlier results on one compound are cited in patent US20260210975A1, “DIAGNOSIS AND TREATMENT OF LONG-COVID” (priority 2022, published 2026).

Amino acid sequences for entries named in this document (tags omitted). A change or cut given only in a name is not applied to a line headed by its entry.
UniProt Q12809: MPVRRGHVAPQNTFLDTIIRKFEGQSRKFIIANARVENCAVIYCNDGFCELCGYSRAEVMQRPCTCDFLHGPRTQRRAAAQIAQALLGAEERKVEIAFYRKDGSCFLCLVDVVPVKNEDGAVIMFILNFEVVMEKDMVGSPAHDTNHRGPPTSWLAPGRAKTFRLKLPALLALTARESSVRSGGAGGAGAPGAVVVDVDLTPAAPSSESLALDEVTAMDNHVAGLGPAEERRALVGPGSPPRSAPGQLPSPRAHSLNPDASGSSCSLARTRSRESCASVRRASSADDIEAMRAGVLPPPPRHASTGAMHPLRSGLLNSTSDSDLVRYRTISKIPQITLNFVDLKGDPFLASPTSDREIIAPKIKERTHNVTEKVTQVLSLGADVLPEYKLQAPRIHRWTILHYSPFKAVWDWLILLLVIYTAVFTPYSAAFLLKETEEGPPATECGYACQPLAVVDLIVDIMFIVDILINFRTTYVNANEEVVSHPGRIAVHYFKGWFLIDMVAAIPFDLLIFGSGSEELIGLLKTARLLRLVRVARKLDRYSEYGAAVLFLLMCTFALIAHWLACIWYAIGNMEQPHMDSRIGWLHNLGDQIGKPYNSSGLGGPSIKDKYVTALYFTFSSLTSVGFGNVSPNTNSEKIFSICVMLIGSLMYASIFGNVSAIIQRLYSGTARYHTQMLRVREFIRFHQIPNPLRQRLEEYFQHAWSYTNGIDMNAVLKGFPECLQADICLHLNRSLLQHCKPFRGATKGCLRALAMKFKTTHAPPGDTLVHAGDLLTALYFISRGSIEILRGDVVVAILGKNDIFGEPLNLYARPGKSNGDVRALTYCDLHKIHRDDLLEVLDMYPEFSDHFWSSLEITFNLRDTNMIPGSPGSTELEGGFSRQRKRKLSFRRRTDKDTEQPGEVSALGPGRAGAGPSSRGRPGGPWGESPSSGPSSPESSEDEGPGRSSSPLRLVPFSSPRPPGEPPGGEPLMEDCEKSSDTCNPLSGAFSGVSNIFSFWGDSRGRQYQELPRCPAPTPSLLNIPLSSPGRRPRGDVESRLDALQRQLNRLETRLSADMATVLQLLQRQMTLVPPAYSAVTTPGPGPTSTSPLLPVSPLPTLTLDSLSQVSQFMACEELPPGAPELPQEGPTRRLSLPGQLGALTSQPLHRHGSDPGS

In this data set the target is KCNH2 (Homo sapiens, UniProt Q12809).

In the case of `CN(C)CCC=C1c2ccccc2COc2ccccc21` [doxepin], the IC50 is roughly 4 µM.

As usually defined, the IC50 is the concentration that inhibits the measured activity by half.
